Data source: PubChem BioAssay AID1224830 (NIAID, 2016)
Shown is a random part of about 18,000 reagents. About 2,900 of all reagents (16%) were called active. 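Calls are made per well; low scores hint the gene aids the LPS response, high scores that it dampens it.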 Repeated entries: four replicate wells of each siRNA pool. Reagent sequences are not shown.

- Screen: 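Regulators of TLR4 signalling towards TNF-alpha in macrophage-like cells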 (primary screen)
- Cell system: human THP-1 monocytic leukaemia cells, TNF dual-luciferase reporter clone, PMA-differentiated to macrophage-like cells
- Reagent: siRNA pool against human genes, 50 nM
- Timing: LPS for 4 h, given about 3 days after siRNA transfection
- Treatment: bacterial LPS (TLR4 ligand), 10 ng/ml
- Measurement: 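TNF firefly reporter luminescence divided by renilla, normalised to the plate median, then turned into a robust z-score for each replicate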
- Reading the numbers: TNF reporter robust z-score: higher = stronger TNF reporter response to LPS
- Rule for the call: 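a well is active when its z-score exceeds 2.8 or falls below -1.5; control wells carry no call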

target gene	TNF reporter robust z-score	activity call
HLA-DQA1 (major histocompatibility complex, class II, DQ alpha 1)	-0.41	inactive
HLA-DQA1 (major histocompatibility complex, class II, DQ alpha 1)	0.39	inactive
HLA-DQA1 (major histocompatibility complex, class II, DQ alpha 1)	0.57	inactive
HLA-DQA1 (major histocompatibility complex, class II, DQ alpha 1)	0.68	inactive
PPM1A (protein phosphatase, Mg2+/Mn2+ dependent 1A)	-0.28	inactive
PPM1A (protein phosphatase, Mg2+/Mn2+ dependent 1A)	-0.84	inactive
PPM1A (protein phosphatase, Mg2+/Mn2+ dependent 1A)	-0.5	inactive
PPM1A (protein phosphatase, Mg2+/Mn2+ dependent 1A)	1.41	inactive
SELENOK (selenoprotein K)	0.65	inactive
SELENOK (selenoprotein K)	1.2	inactive
SELENOK (selenoprotein K)	1.05	inactive
TYMS (thymidylate synthetase)	-0.25	inactive
TYMS (thymidylate synthetase)	0.01	inactive
TYMS (thymidylate synthetase)	-0.15	inactive
TYMS (thymidylate synthetase)	-0.1	inactive
BMPR1A (bone morphogenetic protein receptor type 1A)	0.79	inactive
BMPR1A (bone morphogenetic protein receptor type 1A)	0.03	inactive
BMPR1A (bone morphogenetic protein receptor type 1A)	1.74	inactive
BMPR1A (bone morphogenetic protein receptor type 1A)	0.88	inactive
SPTSSB (serine palmitoyltransferase small subunit B)	-1.36	inactive
SPTSSB (serine palmitoyltransferase small subunit B)	-1.16	inactive
SPTSSB (serine palmitoyltransferase small subunit B)	0.53	inactive
SPTSSB (serine palmitoyltransferase small subunit B)	-0.16	inactive
ALLC (allantoicase)	0.19	inactive
ALLC (allantoicase)	0.54	inactive
ALLC (allantoicase)	0.24	inactive
ALLC (allantoicase)	0.6	inactive
RHEBL1 (RHEB like 1)	-0.64	inactive
RHEBL1 (RHEB like 1)	0.98	inactive
RHEBL1 (RHEB like 1)	-0.28	inactive
RHEBL1 (RHEB like 1)	-0.12	inactive
CYP2A7 (cytochrome P450 family 2 subfamily A member 7)	0.14	inactive
CYP2A7 (cytochrome P450 family 2 subfamily A member 7)	1.02	inactive
CYP2A7 (cytochrome P450 family 2 subfamily A member 7)	0.47	inactive
PODXL2 (podocalyxin like 2)	-0.73	inactive
PODXL2 (podocalyxin like 2)	-0.02	inactive
PODXL2 (podocalyxin like 2)	-1.39	inactive
PODXL2 (podocalyxin like 2)	-0.28	inactive
MED28 (mediator complex subunit 28)	0.47	inactive
MED28 (mediator complex subunit 28)	-0.59	inactive
MED28 (mediator complex subunit 28)	-0.33	inactive
MED28 (mediator complex subunit 28)	0.14	inactive
ARHGAP45 (Rho GTPase activating protein 45)	0.06	inactive
ARHGAP45 (Rho GTPase activating protein 45)	-0.11	inactive
ARHGAP45 (Rho GTPase activating protein 45)	-0.36	inactive
ARHGAP45 (Rho GTPase activating protein 45)	0.82	inactive

Already shown: entries from further up.
target gene	TNF reporter robust z-score	activity call
PODXL2 (podocalyxin like 2)	-0.02	inactive
PODXL2 (podocalyxin like 2)	-1.39	inactive
PODXL2 (podocalyxin like 2)	-0.28	inactive
MED28 (mediator complex subunit 28)	0.47	inactive
MED28 (mediator complex subunit 28)	-0.59	inactive
MED28 (mediator complex subunit 28)	-0.33	inactive
